Laboratory results taken from the supplement of paper PMC7646827.
Where a name gives a salt, the structure may show the parent alone. Repeats are few or missing, and single values can be far off.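 All cells are established human bladder cancer lines, one of them grown from a patient-derived xenograft. Viability was read by a luminescent ATP assay as percent inhibition versus vehicle over a seven-point dilution series; the paper calls scores above 59 very active, 30–59 active, 21–29 semi-active, 9–20 low active and below 9 inactive.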

Assays:
Experiment in all cases: drug sensitivity score DSS3 (score 0-100); higher = more sensitive; extreme values may be limits of the assay
Conditions in all cases: culture: 3D, ultra-low attachment; treatment time: 5 days
UM-UC-18 = system: UM-UC-18
UM-UC-1 = system: UM-UC-1
TCCSUP = system: TCCSUP
UM-UC-3 = system: UM-UC-3
5637 = system: 5637
SCaBER = system: SCaBER
SW780 = system: SW780
UM-UC-5 = system: UM-UC-5
T-24 = system: T-24
BC8149 = system: BC8149
UM-UC-14 = system: UM-UC-14
UM-UC-17 = system: UM-UC-17
UM-UC-15 = system: UM-UC-15
J82 = system: J82
UM-UC-9 = system: UM-UC-9
UM-UC-6 = system: UM-UC-6
UM-UC-12 = system: UM-UC-12

SMILES | drug sensitivity score DSS3 (UM-UC-18) | drug sensitivity score DSS3 (UM-UC-1) | drug sensitivity score DSS3 (TCCSUP) | drug sensitivity score DSS3 (UM-UC-3) | drug sensitivity score DSS3 5637 | drug sensitivity score DSS3 (SCaBER) | drug sensitivity score DSS3 (SW780) | drug sensitivity score DSS3 (UM-UC-5) | drug sensitivity score DSS3 (T-24) | drug sensitivity score DSS3 (BC8149) | drug sensitivity score DSS3 (UM-UC-14) | drug sensitivity score DSS3 (UM-UC-17) | drug sensitivity score DSS3 (UM-UC-15) | drug sensitivity score DSS3 (J82) | drug sensitivity score DSS3 (UM-UC-9) | drug sensitivity score DSS3 (UM-UC-6) | drug sensitivity score DSS3 (UM-UC-12)
C=C[C@@H]1C[C@]1(NC(=O)[C@@H]1C[C@@H](Oc2ncc(OC)c3ccc(Cl)cc23)CN1C(=O)[C@@H](NC(=O)OC(C)(C)C)C(C)(C)C)C(=O)NS(=O)(=O)C1CC1 [Asunaprevir] (max dose 10000 nM) | 0 | 0 | 0 | 0 | 0 | 0 | 0 | 0 | 0 | 0 | 0 | 0 | 0 | 0 | 0 | 0 | 0
C=C1CCC[C@]2(C)C=C3OC(=O)C(C)=C3C[C@@H]12 [Atractylenolide I] (max dose 10000 nM) | 0.989 | 0.0409 | 0 | 0 | 0 | 0 | 0 | 0 | 0.372 | 0.135 | 0 | 0 | 0 | 0 | 0 | 0 | 0.294
COc1ccc(CNc2nc(N3CCC[C@H]3CO)ncc2C(=O)NCc2ncccn2)cc1Cl [Avanafil] (max dose 10000 nM) | 0 | 0 | 0 | 0 | 0.105 | 0 | 0 | 1.07 | 0 | 0 | 0 | 0 | 17.9 | 0 | 0 | 0 | 0
Nc1ncn([C@@H]2O[C@H](CO)[C@@H](O)[C@H]2O)c(=O)n1 [Azacitidine] (max dose 10000 nM) | 0 | 0 | 0 | 0 | 0 | 0 | 0 | 0 | 0 | 0.715 | 0.807 | 0 | 0 | 0 | 0 | 0.342 | 0
CCOc1nc2cccc(C(=O)OCc3oc(=O)oc3C)c2n1Cc1ccc(-c2ccccc2-c2noc(=O)[nH]2)cc1 [Azilsartan Medoxomil] (max dose 10000 nM) | 0 | 0 | 0 | 0 | 0 | 0 | 0 | 0 | 0 | 0 | 0 | 0 | 0 | 0 | 0 | 0 | 0
Cc1ccc(S(=O)(=O)/C=C/C#N)cc1 [BAY 11-7082] (max dose 10000 nM) | 0.93 | 0.871 | 1.15 | 1.18 | 8.88 | 1.56 | 0 | 0.241 | 0.154 | 3.73 | 0 | 0 | 0 | 0 | 1.12 | 0.107 | 0.517
N[C@@H](CSCCB(O)O)C(=O)O [BEC HCl] (max dose 10000 nM) | 0 | 0 | 5.71 | 0 | 4.41 | 0 | 0 | 0 | 0 | 0 | 0.663 | 0 | 39.5 | 0 | 0 | 1.82 | 3.22
CCN1CCN(c2ccc(Nc3cc(N(C)C(=O)Nc4c(Cl)c(OC)cc(OC)c4Cl)ncn3)cc2)CC1 [BGJ398 (NVP-BGJ398)] (max dose 1000 nM) | 0.155 | 3.22 | 3.83 | 0 | 0.185 | 0 | 0 | 0.899 | 0 | 3.93 | 0 | 0.0783 | 4.09 | 0 | 0 | 0.486 | 0
C/C(=C\C(=O)Nc1ccccc1C(=O)O)c1ccc2ccccc2c1 [BIBR 1532] (max dose 10000 nM) | 0 | 0 | 0 | 0 | 0 | 0 | 0 | 0 | 0 | 0 | 0 | 0 | 0 | 0 | 0 | 0 | 0
COc1c(C)cnc(Cn2cnc3c(Cl)nc(N)nc32)c1C [BIIB021] (max dose 10000 nM) | 39.3 | 32.7 | 55.4 | 31.2 | 51.9 | 39.9 | 21.9 | 31 | 29.3 | 40.2 | 28.3 | 42.4 | 20.9 | 12.4 | 14.7 | 20.1 | 28.6
CC(=O)O/N=C1/C(c2c(O)[nH]c3cc(Br)ccc23)=Nc2ccccc21 [BIO-acetoxime] (max dose 10000 nM) | 0 | 0.096 | 0 | 0 | 0 | 0 | 0 | 0 | 0.0681 | 0 | 0 | 0 | 14.1 | 0 | 0 | 0 | 0.101
Cc1ccc(-n2nc(C(C)(C)C)cc2NC(=O)Nc2ccc(OCCN3CCOCC3)c3ccccc23)cc1 [BIRB 796 (Doramapimod)] (max dose 10000 nM) | 0 | 0 | 0.343 | 0 | 0 | 0.102 | 0.782 | 0.122 | 0 | 0.942 | 0 | 0 | 0 | 0 | 0 | 0.336 | 0
C=CC(=O)N[C@H]1CCOC[C@H]1Nc1ncc2cc(-c3c(Cl)c(OC)cc(OC)c3Cl)ccc2n1 [BLU-554 (BLU554)] (max dose 10000 nM) | 0 | 0 | 0 | 0 | 0 | 0 | 0 | 0 | 0 | 0 | 0 | 0 | 0 | 0 | 0 | 0 | 0
CNC(=O)c1cc(Oc2ccc3nc(N[C@@H]4CCCC[C@H]4O)sc3c2)ccn1 [BLZ945] (max dose 10000 nM) | 0 | 0 | 0 | 0 | 0 | 0 | 0 | 0 | 0 | 0 | 0 | 0 | 0.308 | 0 | 0 | 0 | 0
Cc1ccc(NC(=O)c2ccc(CN3CC[C@H](N(C)C)C3)c(C(F)(F)F)c2)cc1Nc1nccc(-c2cncnc2)n1 [Bafetinib (INNO-406)] (max dose 10000 nM) | 1.65 | 7.65 | 10.6 | 1.48 | 20.5 | 2.29 | 0 | 4.91 | 0 | 6.03 | 1.46 | 4.59 | 0 | 0 | 0.989 | 2.62 | 0
COc1ccc(-c2oc3c(CC=C(C)C)c(O)cc(O)c3c(=O)c2O[C@@H]2O[C@@H](C)[C@H](O)[C@@H](O)[C@H]2O)cc1 [Baohuoside I] (max dose 10000 nM) | 0 | 0 | 0 | 0 | 0 | 0 | 0 | 0 | 0.474 | 0 | 0 | 0 | 1.81 | 0 | 0.596 | 0 | 0
CCN(CCCOc1ccc2c(Nc3cc(CC(=O)Nc4cccc(F)c4)[nH]n3)ncnc2c1)CCOP(=O)(O)O [Barasertib (AZD1152-HQPA)] (max dose 10000 nM) | 16.6 | 26.7 | 56.2 | 2.61 | 45.6 | 7.26 | 0 | 0 | 0 | 24.3 | 12.9 | 20.6 | 0 | 0.808 | 0 | 26.8 | 6.69
CC(C)(C)c1ccc(S(=O)(=O)/C=C/C#N)cc1 [Bay 11-7085] (max dose 10000 nM) | 10.6 | 0 | 1.44 | 1 | 2.68 | 0 | 0 | 0 | 0.0194 | 1.61 | 0.458 | 0 | 0 | 0 | 0 | 0 | 0.949
Nc1nc(Nc2ccc3c(c2)CC[C@@H](N2CCCC2)CC3)nn1-c1cc2c(nn1)-c1ccccc1CCC2 [Bemcentinib] (max dose 10000 nM) | 0 | 0 | 0 | 5.1e-07 | 0 | 0 | 0 | 0 | 0 | 0 | 0 | 0 | 1.34 | 0 | 0 | 0 | 0
CC(O)(CS(=O)(=O)c1ccc(F)cc1)C(=O)Nc1ccc(C#N)c(C(F)(F)F)c1 (stereo unspecified) [Bicalutamide] (max dose 10000 nM) | 0 | 0 | 0 | 0 | 0 | 0.467 | 0 | 0 | 0 | 0 | 0 | 0 | 0 | 0 | 0 | 0 | 0
CC(C)C[C@H](NC(=O)[C@H](Cc1ccccc1)NC(=O)c1cnccn1)B(O)O [Bortezomib] (max dose 10000 nM) | 72.7 | 88.2 | 89 | 56.4 | 73.2 | 87.8 | 82.8 | 81.4 | 53.8 | 78.7 | 85.9 | 89 | 73.3 | 87.6 | 84.3 | 74 | 91.9
COc1cc(Nc2c(C#N)cnc3cc(OCCCN4CCN(C)CC4)c(OC)cc23)c(Cl)cc1Cl [Bosutinib, Bosutinib (SKI-606)] (max dose 10000 nM) | 0.593 | 0 | 3.06 | 1.04 | 3.13 | 3.91 | 0 | 0 | 3.2 | 0 | 0.653 | 0.195 | 0 | 0 | 0 | 0 | 21.3
CC[C@H](Nc1ncnc2[nH]cnc12)c1nc2cccc(F)c2c(=O)n1-c1ccccc1 [CAL-101 (Idelalisib, GS-1101)] (max dose 10000 nM) | 0 | 0 | 0 | 0 | 0 | 0 | 0 | 0 | 0 | 8.1e-05 | 0 | 0 | 0 | 0 | 0 | 0 | 0

Two neighbouring records already listed, for reference:
SMILES | drug sensitivity score DSS3 (UM-UC-18) | drug sensitivity score DSS3 (UM-UC-1) | drug sensitivity score DSS3 (TCCSUP) | drug sensitivity score DSS3 (UM-UC-3) | drug sensitivity score DSS3 5637 | drug sensitivity score DSS3 (SCaBER) | drug sensitivity score DSS3 (SW780) | drug sensitivity score DSS3 (UM-UC-5) | drug sensitivity score DSS3 (T-24) | drug sensitivity score DSS3 (BC8149) | drug sensitivity score DSS3 (UM-UC-14) | drug sensitivity score DSS3 (UM-UC-17) | drug sensitivity score DSS3 (UM-UC-15) | drug sensitivity score DSS3 (J82) | drug sensitivity score DSS3 (UM-UC-9) | drug sensitivity score DSS3 (UM-UC-6) | drug sensitivity score DSS3 (UM-UC-12)
Nc1nc(Nc2ccc3c(c2)CC[C@@H](N2CCCC2)CC3)nn1-c1cc2c(nn1)-c1ccccc1CCC2 [Bemcentinib] (max dose 10000 nM) | 0 | 0 | 0 | 5.1e-07 | 0 | 0 | 0 | 0 | 0 | 0 | 0 | 0 | 1.34 | 0 | 0 | 0 | 0
CC(O)(CS(=O)(=O)c1ccc(F)cc1)C(=O)Nc1ccc(C#N)c(C(F)(F)F)c1 (stereo unspecified) [Bicalutamide] (max dose 10000 nM) | 0 | 0 | 0 | 0 | 0 | 0.467 | 0 | 0 | 0 | 0 | 0 | 0 | 0 | 0 | 0 | 0 | 0
